Laboratory results published in article PMC6939906, “Leucine zipper transcription factor-like 1 binds adaptor protein complex-1 and 2 and participates in trafficking of transferrin receptor 1” (PLoS ONE, 2020).
These are yes or no findings as the source states them, for the method shown. Binding seen in cells or lysates may run through a third protein. Here binding means that the protein was enriched with, or labelled near, the bait; the list need not be complete. Sequences can lack the tags named with a protein.

Target: T1, LZTFL1-Myc-Flag (human leucine zipper transcription factor-like 1) expressed in Jurkat E6.1 cells (human) (UniProt Q9NQ48)
T1 sequence: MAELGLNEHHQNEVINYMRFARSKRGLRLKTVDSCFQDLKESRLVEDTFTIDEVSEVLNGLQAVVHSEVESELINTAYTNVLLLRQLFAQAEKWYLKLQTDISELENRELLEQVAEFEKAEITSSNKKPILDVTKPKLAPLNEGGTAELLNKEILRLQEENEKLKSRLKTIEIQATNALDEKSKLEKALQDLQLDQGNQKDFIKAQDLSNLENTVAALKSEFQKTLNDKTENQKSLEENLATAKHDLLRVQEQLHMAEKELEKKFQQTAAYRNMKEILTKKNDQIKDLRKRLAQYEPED
Test: affinity purification with mass spectrometry; LZTFL1-Myc-Flag from transfected Jurkat E6.1 cells precipitated on anti-FLAG M2 magnetic beads overnight at 4°C, eluted with 3X FLAG peptide, SDS-PAGE, silver stain, in-gel digestion, LC-MS/MS

- binding: binds
B1: β1 subunit of AP-1, endogenous in Jurkat E6.1 cells (protein, UniProt Q10567 1-949)
chain: MTDSKYFTTTKKGEIFELKAELNSDKKEKKKEAVKKVIASMTVGKDVSALFPDVVNCMQTDNLELKKLVYLYLMNYAKSQPDMAIMAVNTFVKDCEDPNPLIRALAVRTMGCIRVDKITEYLCEPLRKCLKDEDPYVRKTAAVCVAKLHDINAQLVEDQGFLDTLKDLISDSNPMVVANAVAALSEIAESHPSSNLLDLNPQSINKLLTALNECTEWGQIFILDCLANYMPKDDREAQSICERVTPRLSHANSAVVLSAVKVLMKFMEMLSKDLDYYGTLLKKLAPPLVTLLSAEPELQYVALRNINLIVQKRPEILKHEMKVFFVKYNDPIYVKLEKLDIMIRLASQANIAQVLAELKEYATEVDVDFVRKAVRAIGRCAIKVEQSAERCVSTLLDLIQTKVNYVVQEAIVVIKDIFRKYPNKYESVIATLCENLDSLDEPEARAAMIWIVGEYAERIDNADELLESFLEGFHDESTQVQLQLLTAIVKLFLKKPTETQELVQQVLSLATQDSDNPDLRDRGYIYWRLLSTDPVAAKEVVLAEKPLISEETDLIEPTLLDELICYIGTLASVYHKPPSAFVEGGRGVVHKSLPPRTASSESAESPETAPTGAPPGEQPDVIPAQGDLLGDLLNLDLGPPVSGPPLATSSVQMGAVDLLGGGLDSLMGDEPEGIGGTNFVAPPTAAVPANLGAPIGSGLSDLFDLTSGVGTLSGSYVAPKAVWLPAMKAKGLEISGTFTRQVGSISMDLQLTNKALQVMTDFAIQFNRNSFGLAPAAPLQVHAPLSPNQTVEISLPLSTVGSVMKMEPLNNLQVAVKNNIDVFYFSTLYPLHILFVEDGKMDRQMFLATWKDIPNENEAQFQIRDCPLNAEAASSKLQSSNIFTVAKRNVEGQDMLYQSLKLTNGIWVLAELRIQPGNPSCTDLELSLKCRAPEVSQHVYQAYETILKN
